Measurements from PubChem BioAssay AID1487 (National Center for Advancing Translational Sciences (NCATS), 2009).
The list shows a part of the results. Further columns of the screen follow, without active or inactive calls. Compounds called inactive in the main read-out are mostly missing here. Potencies come from curve fits of mixed quality, noted in brackets.

Experiment: qHTS Assay for Modulators of Lamin A Splicing
Settings: HeLa LMNA splicing GFP/RFP minigene ratio, 48 h
Procedure, shortened: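 Read-out is the ratio of GFP to DsRed2 object intensity, acquired by 488 nm laser-scanning cytometry on HeLa lamin A-EGFP minigene reporter cells. Compound incubation 48 hrs at 37 °C in Opti-MEM with 2% FBS; DMSO 0.5% final.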

[1] = measured here: GFP splicing reporter channel
[2] = measured here: RFP viability control channel

## COc1ccc(Cl)cc1C(=O)NC(=S)Nc1cc(-c2nc3ccccc3[nH]2)ccc1C
[1]
  AC50: 17.8 µM [rising, partial curve, poor fit]
[2]
  AC50: 20 µM [rising, single point]

## CSc1nc(N(C)CCO)c2sc3nc(-c4ccco4)c4c(c3c2n1)CCC4
[1]
  AC50: 0.0224 µM [falling, partial curve]
[2]
  AC50: 0.0316 µM [falling, single point]

## CCOc1ccc(CN2CCN(Cc3nc4c(s3)CCCC4)CC2CCO)cc1 (centres undefined)
[1]
  AC50: 7.08 µM [falling, full curve, poor fit]
[2]
  AC50: 11.2 µM [falling, partial curve, poor fit]

## CC(=O)Nc1ccc(-c2csc(NCc3ccccc3)n2)cc1
[2]
  AC50: 35.5 µM [falling, partial curve, poor fit]

## O=c1oc2cc(O)c(Cl)cc2c2ccccc12
[1]
  AC50: 6.31 µM [rising, partial curve, poor fit]
[2]
  AC50: 6.31 µM [rising, partial curve]

## CCOC(=O)N1CCN(C(=O)COc2cccc3c2CCN(Cc2ccccc2C)C3=O)CC1
[2]
  AC50: 35.5 µM [rising, single point]

## Nc1c(C(=O)Nc2ccc(F)cc2)sc2nc(-c3ccco3)ccc12
[1]
  AC50: 10 µM [rising, partial curve, poor fit]
[2]
  AC50: 14.1 µM [rising, partial curve]

## O=C(CNc1ccc2ccccc2c1)N/N=C/c1cc2ccccc2nc1Cl
[2]
  AC50: 20 µM [rising, single point]

## O=C(CCc1ccccc1)NC(=S)Nc1cccc(Br)c1
[2]
  AC50: 3.55 µM [falling, partial curve]

## COc1ccc(/C=N/N2CCN(C3c4ccccc4-c4ccccc43)CC2)cc1O
[2]
  AC50: 11.2 µM [rising, partial curve, poor fit]

## Cc1nnnn1-c1ccc(CC(=O)O)cc1
[2]
  AC50: 0.0224 µM [rising, full curve, poor fit]

## Cc1ccc(C(=O)Nc2ccc(C(=O)/C=C/c3cccs3)cc2)cc1
[2]
  AC50: 25.1 µM [falling, single point]

## Cn1c(SCC(=O)c2ccc(F)cc2)nc2cccnc21
[1]
  AC50: 12.6 µM [rising, single point]
[2]
  AC50: 17.8 µM [rising, single point]

## Cc1csc(NC(=O)c2cc3c(C)nn(Cc4ccccc4Cl)c3s2)n1
[1]
  AC50: 15.8 µM [rising, single point]
[2]
  AC50: 20 µM [rising, single point]

## Cc1ccc(NC(=O)CSc2nn(-c3ccccc3)c(=S)s2)cc1S(=O)(=O)N(C)C
[1]
  AC50: 3.16 µM [rising, partial curve]
[2]
  AC50: 3.55 µM [rising, full curve]

## O=C(CCN1CCN(Cc2ccccc2)CC1)Nc1cccc(Cl)c1
[1]
  AC50: 20 µM [rising, single point]

## O=C(Nc1cccc(Cl)c1)c1ccc2nc(Cc3ccccc3)oc2c1
[2]
  AC50: 5.62 µM [rising, single point]

## O=S(Cc1ccc(Cl)cc1)CC(O)COCc1ccc(Cl)cc1 (centres undefined)
[1]
  AC50: 5.01 µM [rising, full curve, poor fit]

## COc1ccc(NC(=O)c2cc(CN3C(=O)c4ccccc4C3=O)ccc2OC)cn1
[2]
  AC50: 14.1 µM [rising, single point]

## Cc1ncc(COC(=O)C(C)C)c2cc(C(=O)Nc3ccccc3C(F)(F)F)c(=O)oc12
[2]
  AC50: 0.00316 µM [rising, full curve, poor fit]

## Cc1cccc(N2C(=O)CS(=O)(=O)C23C(=O)N(C)c2ccccc23)c1 (centres undefined)
[2]
  AC50: 2.24 µM [rising, full curve]

## Cc1c(C#N)c(N)nc2c3c(sc12)NC(=O)CC3c1ccc(Cl)cc1 (centres undefined)
[1]
  AC50: 35.5 µM [falling, single point]
[2]
  AC50: 35.5 µM [falling, single point]

## O=c1[nH]c(=O)c2nc3c4ccccc4c4ccccc4c3nc2[nH]1
[2]
  AC50: 25.1 µM [falling, partial curve]

## CCNC(=O)Cn1c(=O)c(=O)n(Cc2ccccc2)c2ccc(Cl)cc21
[2]
  AC50: 35.5 µM [rising, single point]

## O=C1CCC(=O)N1c1ccc(S(=O)(=O)N2CCCC2)cc1
[1]
  AC50: 0.00447 µM [falling, full curve, poor fit]
[2]
  AC50: 0.00316 µM [falling, full curve, poor fit]

## CCOC(=O)c1nc(N2CCN(C(=O)OCC)CC2)c2c3c(sc2n1)CCCC3
[2]
  AC50: 35.5 µM [rising, single point]

## CCCN(CC1CC1)c1nc(C)nc(Nc2c(Cl)cc(Cl)cc2Cl)c1Cl
[1]
  AC50: 6.31 µM [falling, partial curve, poor fit]
[2]
  AC50: 35.5 µM [rising, single point]

## COc1ccc(/C=C(/C#N)c2cccnc2)cc1OC
[1]
  AC50: 11.2 µM [falling, partial curve, poor fit]
[2]
  AC50: 11.2 µM [rising, single point]

## O=c1cc(-c2cccs2)oc2ccc(Cl)cc12
[1]
  AC50: 0.501 µM [falling, full curve, poor fit]
[2]
  AC50: 0.501 µM [falling, full curve]

## Cc1ccc(S(=O)(=O)Oc2ccccc2/C=N/O)cc1
[1]
  AC50: 1.41 µM [rising, full curve, poor fit]
[2]
  AC50: 17.8 µM [rising, partial curve, poor fit]

## Cc1cc(C(=O)N/N=C/c2ccccn2)n[nH]1
[1]
  AC50: 2.82 µM [falling, partial curve, poor fit]
[2]
  AC50: 4.47 µM [falling, partial curve]

## COc1ccccc1-c1nccc(NCc2cccs2)n1
[1]
  AC50: 11.2 µM [falling, partial curve, poor fit]

## CN(C)c1ccc(CNC(=O)CCC(=O)N2Cc3ccccc3Oc3ncccc32)cc1
[2]
  AC50: 5.62 µM [falling, partial curve, poor fit]

## CCC(C(=O)Nc1cc(C(=O)Nc2cc(C)ccn2)ccc1Cl)c1ccccc1 (centres undefined)
[1]
  AC50: 14.1 µM [rising, single point]
